Measurements taken from the supplement of paper PMC10849652.
The other results are listed elsewhere or left out.

Chains of the proteins cited; added tags and fusions are not shown. Lines headed by an entry give the natural chain unless they say otherwise; changes in a name come on top.
UniProt Q7L014: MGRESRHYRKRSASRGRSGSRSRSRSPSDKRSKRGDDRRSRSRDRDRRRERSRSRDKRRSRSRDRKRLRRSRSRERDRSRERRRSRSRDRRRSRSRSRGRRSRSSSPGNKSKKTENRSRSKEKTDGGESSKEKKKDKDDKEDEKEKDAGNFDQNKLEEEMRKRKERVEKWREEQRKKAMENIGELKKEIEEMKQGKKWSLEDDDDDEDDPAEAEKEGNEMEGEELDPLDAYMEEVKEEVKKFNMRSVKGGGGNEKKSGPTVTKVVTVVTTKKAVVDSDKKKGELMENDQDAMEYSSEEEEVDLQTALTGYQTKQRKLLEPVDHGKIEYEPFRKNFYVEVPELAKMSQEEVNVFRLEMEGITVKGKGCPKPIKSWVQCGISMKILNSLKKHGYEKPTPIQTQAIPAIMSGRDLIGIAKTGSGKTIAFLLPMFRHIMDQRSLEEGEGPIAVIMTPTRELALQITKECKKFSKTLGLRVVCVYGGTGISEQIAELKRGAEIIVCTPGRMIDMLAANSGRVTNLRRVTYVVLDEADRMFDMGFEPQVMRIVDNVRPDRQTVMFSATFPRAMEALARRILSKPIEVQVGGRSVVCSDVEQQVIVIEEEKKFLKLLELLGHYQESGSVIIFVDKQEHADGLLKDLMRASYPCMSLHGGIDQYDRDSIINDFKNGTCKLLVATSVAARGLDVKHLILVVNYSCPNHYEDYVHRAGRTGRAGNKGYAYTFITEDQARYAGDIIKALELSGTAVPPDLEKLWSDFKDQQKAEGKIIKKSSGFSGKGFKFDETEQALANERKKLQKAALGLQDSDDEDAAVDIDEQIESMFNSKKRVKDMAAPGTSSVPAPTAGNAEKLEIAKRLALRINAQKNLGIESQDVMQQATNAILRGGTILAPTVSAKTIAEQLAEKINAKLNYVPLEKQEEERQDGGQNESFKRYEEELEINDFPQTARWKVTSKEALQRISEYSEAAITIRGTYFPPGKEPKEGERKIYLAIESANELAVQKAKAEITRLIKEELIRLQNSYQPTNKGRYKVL
UniProt Q9UMR2: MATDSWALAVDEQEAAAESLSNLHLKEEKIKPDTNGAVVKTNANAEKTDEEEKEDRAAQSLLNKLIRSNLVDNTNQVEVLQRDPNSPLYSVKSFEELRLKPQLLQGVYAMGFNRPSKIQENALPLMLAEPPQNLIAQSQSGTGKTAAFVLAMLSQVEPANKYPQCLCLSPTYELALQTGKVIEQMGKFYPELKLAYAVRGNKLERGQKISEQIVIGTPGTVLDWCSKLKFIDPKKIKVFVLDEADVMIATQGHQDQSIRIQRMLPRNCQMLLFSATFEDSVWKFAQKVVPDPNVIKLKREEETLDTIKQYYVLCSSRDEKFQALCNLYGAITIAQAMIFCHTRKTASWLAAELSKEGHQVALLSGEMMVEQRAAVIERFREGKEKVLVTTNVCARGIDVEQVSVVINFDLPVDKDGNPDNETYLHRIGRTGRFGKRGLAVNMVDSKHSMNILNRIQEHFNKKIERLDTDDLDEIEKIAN
UniProt Q8NEL9: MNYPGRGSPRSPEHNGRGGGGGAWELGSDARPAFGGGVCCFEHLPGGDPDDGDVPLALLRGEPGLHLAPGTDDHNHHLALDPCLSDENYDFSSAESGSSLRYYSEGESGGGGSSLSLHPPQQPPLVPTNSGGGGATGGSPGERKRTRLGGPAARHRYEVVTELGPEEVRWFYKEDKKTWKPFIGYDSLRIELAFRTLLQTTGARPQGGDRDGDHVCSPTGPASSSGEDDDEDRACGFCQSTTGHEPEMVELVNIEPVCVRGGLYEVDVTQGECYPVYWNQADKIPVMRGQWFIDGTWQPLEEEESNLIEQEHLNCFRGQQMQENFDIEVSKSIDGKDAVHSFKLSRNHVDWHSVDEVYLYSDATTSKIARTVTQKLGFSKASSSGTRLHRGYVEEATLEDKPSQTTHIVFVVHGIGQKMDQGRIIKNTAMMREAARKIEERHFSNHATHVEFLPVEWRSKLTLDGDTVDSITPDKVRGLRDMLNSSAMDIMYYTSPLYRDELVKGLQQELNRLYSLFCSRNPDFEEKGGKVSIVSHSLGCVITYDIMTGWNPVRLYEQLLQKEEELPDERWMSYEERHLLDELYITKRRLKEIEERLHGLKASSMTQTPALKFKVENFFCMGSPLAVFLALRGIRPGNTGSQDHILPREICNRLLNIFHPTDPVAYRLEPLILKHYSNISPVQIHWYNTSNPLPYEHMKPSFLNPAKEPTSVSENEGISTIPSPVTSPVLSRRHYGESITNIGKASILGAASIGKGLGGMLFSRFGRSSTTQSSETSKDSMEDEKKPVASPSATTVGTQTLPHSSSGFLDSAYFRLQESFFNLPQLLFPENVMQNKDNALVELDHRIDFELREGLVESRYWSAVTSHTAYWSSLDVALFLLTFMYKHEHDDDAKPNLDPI
UniProt Q9Y4D1, whole entry, looked up: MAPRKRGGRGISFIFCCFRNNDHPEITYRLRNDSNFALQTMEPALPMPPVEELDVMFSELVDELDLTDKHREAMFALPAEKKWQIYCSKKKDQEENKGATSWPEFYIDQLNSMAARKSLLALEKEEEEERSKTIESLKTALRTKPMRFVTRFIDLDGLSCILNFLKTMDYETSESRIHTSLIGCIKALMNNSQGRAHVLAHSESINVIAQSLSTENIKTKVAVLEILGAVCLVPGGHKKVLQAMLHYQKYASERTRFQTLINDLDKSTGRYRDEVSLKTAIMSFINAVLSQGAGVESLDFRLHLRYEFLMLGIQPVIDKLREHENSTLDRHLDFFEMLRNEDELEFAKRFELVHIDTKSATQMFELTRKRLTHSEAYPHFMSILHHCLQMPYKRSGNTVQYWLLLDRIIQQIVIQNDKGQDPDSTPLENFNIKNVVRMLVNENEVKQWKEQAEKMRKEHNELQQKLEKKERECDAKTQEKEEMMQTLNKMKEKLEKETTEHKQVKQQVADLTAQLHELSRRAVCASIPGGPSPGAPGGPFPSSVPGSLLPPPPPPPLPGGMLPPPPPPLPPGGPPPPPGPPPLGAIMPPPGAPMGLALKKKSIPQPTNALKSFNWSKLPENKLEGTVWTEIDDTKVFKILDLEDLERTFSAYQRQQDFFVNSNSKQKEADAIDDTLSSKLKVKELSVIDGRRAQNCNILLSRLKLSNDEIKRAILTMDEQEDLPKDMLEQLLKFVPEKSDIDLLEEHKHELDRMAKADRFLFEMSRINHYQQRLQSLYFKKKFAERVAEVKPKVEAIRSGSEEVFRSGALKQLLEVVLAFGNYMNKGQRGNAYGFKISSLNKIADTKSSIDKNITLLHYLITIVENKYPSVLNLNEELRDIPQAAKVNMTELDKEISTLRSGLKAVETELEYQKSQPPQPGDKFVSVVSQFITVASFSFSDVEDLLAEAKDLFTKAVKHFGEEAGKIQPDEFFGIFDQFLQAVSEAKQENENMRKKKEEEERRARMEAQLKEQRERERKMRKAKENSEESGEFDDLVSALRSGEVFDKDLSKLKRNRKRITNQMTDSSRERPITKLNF
UniProt Q9UER7, whole entry, looked up: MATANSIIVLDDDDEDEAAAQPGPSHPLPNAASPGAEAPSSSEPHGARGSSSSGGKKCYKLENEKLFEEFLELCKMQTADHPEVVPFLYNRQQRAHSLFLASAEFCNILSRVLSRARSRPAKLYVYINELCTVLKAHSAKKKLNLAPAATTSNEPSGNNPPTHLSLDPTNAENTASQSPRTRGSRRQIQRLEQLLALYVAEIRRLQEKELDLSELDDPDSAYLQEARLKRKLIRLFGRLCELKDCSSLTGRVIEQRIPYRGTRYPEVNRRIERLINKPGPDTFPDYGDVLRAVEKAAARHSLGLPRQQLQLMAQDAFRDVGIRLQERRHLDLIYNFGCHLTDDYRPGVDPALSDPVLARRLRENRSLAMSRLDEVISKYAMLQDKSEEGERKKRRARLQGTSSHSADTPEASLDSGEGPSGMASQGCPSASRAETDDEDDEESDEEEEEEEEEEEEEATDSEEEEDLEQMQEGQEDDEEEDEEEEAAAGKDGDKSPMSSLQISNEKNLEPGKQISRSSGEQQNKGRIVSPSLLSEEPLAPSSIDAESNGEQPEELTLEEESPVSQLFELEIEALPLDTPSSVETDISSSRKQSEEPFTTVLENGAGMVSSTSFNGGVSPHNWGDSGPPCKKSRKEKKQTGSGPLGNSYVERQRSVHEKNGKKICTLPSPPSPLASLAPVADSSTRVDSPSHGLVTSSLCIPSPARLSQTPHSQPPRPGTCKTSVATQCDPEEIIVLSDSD
UniProt Q92466: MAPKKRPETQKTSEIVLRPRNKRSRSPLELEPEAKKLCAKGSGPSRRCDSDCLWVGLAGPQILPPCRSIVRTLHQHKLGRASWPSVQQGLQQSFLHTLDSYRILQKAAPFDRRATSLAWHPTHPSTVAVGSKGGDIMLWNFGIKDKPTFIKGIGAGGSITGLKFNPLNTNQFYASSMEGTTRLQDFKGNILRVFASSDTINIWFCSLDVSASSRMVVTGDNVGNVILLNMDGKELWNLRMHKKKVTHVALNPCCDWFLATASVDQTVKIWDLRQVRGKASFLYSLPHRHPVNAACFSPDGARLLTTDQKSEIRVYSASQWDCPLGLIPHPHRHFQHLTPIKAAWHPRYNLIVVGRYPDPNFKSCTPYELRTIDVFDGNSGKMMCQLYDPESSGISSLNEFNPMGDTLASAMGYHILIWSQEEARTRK
UniProt P27707: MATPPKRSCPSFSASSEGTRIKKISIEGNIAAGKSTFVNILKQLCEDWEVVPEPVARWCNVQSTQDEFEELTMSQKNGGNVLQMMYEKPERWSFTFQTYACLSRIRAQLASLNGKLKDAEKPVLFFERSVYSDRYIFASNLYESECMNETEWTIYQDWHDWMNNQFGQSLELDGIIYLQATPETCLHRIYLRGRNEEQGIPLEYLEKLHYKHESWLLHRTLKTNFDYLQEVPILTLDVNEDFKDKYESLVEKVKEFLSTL
UniProt Q16643: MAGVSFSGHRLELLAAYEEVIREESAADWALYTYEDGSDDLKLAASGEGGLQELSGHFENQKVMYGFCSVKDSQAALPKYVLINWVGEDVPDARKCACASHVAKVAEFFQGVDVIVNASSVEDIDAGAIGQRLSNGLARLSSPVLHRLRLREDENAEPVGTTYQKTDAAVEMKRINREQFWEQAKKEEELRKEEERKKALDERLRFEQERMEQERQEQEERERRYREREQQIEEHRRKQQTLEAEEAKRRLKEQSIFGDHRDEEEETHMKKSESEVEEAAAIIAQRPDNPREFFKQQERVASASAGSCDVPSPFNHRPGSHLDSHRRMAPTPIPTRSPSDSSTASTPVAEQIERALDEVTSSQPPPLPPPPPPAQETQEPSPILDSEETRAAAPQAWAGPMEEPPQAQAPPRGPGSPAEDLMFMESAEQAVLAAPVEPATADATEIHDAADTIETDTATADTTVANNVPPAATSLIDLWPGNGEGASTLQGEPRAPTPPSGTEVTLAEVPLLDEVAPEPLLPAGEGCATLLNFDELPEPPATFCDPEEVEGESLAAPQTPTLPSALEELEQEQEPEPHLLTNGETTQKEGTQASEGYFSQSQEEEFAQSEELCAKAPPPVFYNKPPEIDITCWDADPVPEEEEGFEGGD
UniProt Q9BTE1, whole entry, looked up: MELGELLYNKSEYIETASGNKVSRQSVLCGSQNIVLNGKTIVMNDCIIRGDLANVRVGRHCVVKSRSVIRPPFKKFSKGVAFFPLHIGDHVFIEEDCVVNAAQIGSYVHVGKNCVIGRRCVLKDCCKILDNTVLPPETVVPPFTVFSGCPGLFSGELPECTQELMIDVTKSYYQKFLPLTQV
UniProt Q96GQ7: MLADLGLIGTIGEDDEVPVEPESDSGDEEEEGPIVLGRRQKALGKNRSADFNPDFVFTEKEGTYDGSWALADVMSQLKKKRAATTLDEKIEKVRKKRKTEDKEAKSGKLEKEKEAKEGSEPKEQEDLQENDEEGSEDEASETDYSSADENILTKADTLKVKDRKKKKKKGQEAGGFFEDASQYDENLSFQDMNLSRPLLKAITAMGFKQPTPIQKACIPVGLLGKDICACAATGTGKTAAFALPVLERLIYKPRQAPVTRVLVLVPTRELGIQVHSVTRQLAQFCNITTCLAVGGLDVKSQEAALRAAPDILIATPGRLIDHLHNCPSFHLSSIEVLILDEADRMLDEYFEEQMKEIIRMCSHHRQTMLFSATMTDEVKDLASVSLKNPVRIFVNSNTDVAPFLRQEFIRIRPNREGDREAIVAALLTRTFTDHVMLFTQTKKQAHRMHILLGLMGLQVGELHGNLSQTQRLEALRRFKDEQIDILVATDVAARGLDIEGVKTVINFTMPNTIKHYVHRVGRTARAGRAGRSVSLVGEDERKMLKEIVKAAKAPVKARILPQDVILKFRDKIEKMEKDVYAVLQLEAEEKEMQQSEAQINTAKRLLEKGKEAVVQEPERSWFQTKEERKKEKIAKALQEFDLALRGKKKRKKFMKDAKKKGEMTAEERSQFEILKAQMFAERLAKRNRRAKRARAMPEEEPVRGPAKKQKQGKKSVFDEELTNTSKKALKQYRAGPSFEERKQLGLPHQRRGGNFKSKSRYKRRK

Columns and labels:
Assay in all cases: log2 fold change, soluble protein after heating vs DMSO (PISA); higher = thermal stabilisation; K562 lysate, 10 uM; active = over 0.2 and 3.5 SD of the protein, either way, in both replicates (recomputed)
[1] = compound: C1=CC=C(C=C1)[C@H](COC2=CC3=C(C=C2)NC(=O)N3)NC(=O)C4=CC=CN(C4=O)CC5=CC(=C(C=C5)F)F
Method in brief: (§1)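 Soluble protein was defined as the supernatant remaining after 21,000xg for 90 min, following pooling of heated aliquots and adjustment to 0.5% NP-40 at 4°C. Before that, crude K562 extract at 1 mg/mL protein in PBS pH 7.4 with 1 mM MgCl2 was treated with 10 μM compound for 30 min and heated for 3 min across 48°C-58°C. Quantification used TMTpro 16plex LC-MS/MS with channel sums equalised, and values are log-two fold changes in thermal stability relative to solvent controls from duplicates.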

[2] = compound: CC1=C(SC2=C1C(=N[C@H](C3=NN=C(N32)C)CC(=O)N)C4=CC=C(C=C4)Cl)C
Method in brief: as §1

[3] = compound: CC1=C2C(=CC=C1)N=C(N(C2=O)C3=CC=CC=C3C)CN4C=NC5=C(N=CN=C54)N
Method in brief: as §1

[4] = compound: Cc1sc2c(c1C)C(c1ccc(Cl)cc1)=N[C@@H](CC(=O)OC(C)(C)C)c1nnc(C)n1-2
Method in brief: as §1

[5] = compound: c1ccc([C@@H]2C[C@H]2NC2CCNCC2)cc1
Method in brief: as §1

Measured: log2 fold change

DDX46 (UniProt Q7L014)
inactive: [1] 0.018 | [2] -0.018 | [3] 0.014 | [4] 0.021 | [5] 0.012

DAZAP1 (UniProt Q96EP5)
inactive: [1] 0.011 | [2] -0.046 | [3] 0.005 | [4] 0.088 | [5] -0.086

DDX19B (UniProt Q9UMR2)
inactive: [1] 0.008 | [2] 0.015 | [3] -0.016 | [4] 0.003 | [5] 0.003

DEF8 (UniProt Q6ZN54)
inactive: [1] -0.228 | [2] -0.001 | [3] -0.047 | [4] -0.017

DDX42 (UniProt Q86XP3)
inactive: [1] 0.015 | [2] 0.016 | [3] 0.052 | [4] 0.022 | [5] 0.03

DDI2 isoform 3 (UniProt Q5TDH0)
inactive: [1] 0.018 | [2] -0.012 | [3] 0.002 | [4] -0.023 | [5] 0.021

DCAF12 (UniProt Q5T6F0)
inactive: [1] 0.063 | [2] 0.011 | [3] -0.07 | [4] -0.08

DCUN1D5 (UniProt Q9BTE7)
inactive: [1] -0.01 | [2] 0.209 | [3] 0 | [4] -0.006 | [5] 0.113

DDX24 (UniProt Q9GZR7)
inactive: [1] -0.014 | [2] 0.004 | [3] -0.02 | [4] 0.031 | [5] 0.014

DENND1A isoform 6 (UniProt Q8TEH3)
inactive: [1] -0.004 | [2] -0.009 | [3] 0.203 | [4] 0.071

DDHD1 (UniProt Q8NEL9)
inactive: [1] 0.003 | [2] 0.033 | [3] 0.012 | [4] -0.02 | [5] -0.075

DDAH2 (UniProt O95865)
inactive: [1] 0.009 | [2] 0.01 | [3] 0.028 | [4] 0.021 | [5] 0.052

DAAM1 (UniProt Q9Y4D1)
inactive: [1] -0.056 | [2] -0.02 | [3] -0.016 | [4] 0.344 | [5] -0.043

DDOST (UniProt P39656)
inactive: [1] -0.017 | [2] 0 | [3] 0.016 | [4] -0.057 | [5] -0.041

DBT (UniProt P11182)
inactive: [1] -0.014 | [2] 0.018 | [3] -0.049 | [4] 0.051 | [5] -0.014

DECR1 (UniProt Q16698)
inactive: [1] 0.008 | [2] 0.006 | [3] -0.01 | [4] 0.039 | [5] 0.004

DCAF15 (UniProt Q66K64)
inactive: [1] -0.069 | [2] -0.01 | [3] -0.006 | [4] 0.011 | [5] 0.076

Quoted at random: two entries already listed, in no set order.
DECR1 (UniProt Q16698)
inactive: [1] 0.008 | [2] 0.006 | [3] -0.01 | [4] 0.039 | [5] 0.004

DDHD1 (UniProt Q8NEL9)
inactive: [1] 0.003 | [2] 0.033 | [3] 0.012 | [4] -0.02 | [5] -0.075

Remaining list, next part:

DAXX (UniProt Q9UER7)
inactive: [1] 0.026 | [2] 0.076 | [3] 0.037 | [4] -0.043 | [5] 0.022

DDB2 (UniProt Q92466)
inactive: [1] -0.025 | [2] -0.026 | [3] 0.034 | [4] -0.027 | [5] 0.006

DCK (UniProt P27707)
inactive: [1] 0.033 | [2] -0.006 | [3] -0.008 | [4] -0.015 | [5] 0.046

DBN1 (UniProt Q16643)
inactive: [1] -0.006 | [2] 0.004 | [3] -0.008 | [4] -0.016 | [5] -0.004

DCTN5 (UniProt Q9BTE1)
inactive: [1] 0.032 | [2] 0.016 | [3] 0.073 | [4] 0.028 | [5] -0.053

DDX50 (UniProt Q9BQ39)
inactive: [1] 0.038 | [2] 0.019 | [3] -0.037 | [4] -0.016 | [5] 0.063

DENND1C (UniProt Q8IV53)
inactive: [1] 0.094 | [2] 0.261 | [3] -0.11 | [4] -0.208

DDX27 (UniProt Q96GQ7)
inactive: [1] 0.006 | [2] 0.026 | [3] 0 | [4] -0.024 | [5] 0.017
